Measured values from patent US20190135887A1, “METABOLICALLY STABLE SPEXIN PEPTIDE ANALOGS” (UNIVERSITÉ DE STRASBOURG, priority 2016, published 2019).
Not every detail of the peptide structures is certain; ends, links or a residue may be inferred.

Legend:
[1] = system: C57BL/6N male mice; test: Tail immersion test (nociception); assay type: in vivo; conditions: 10 nmol icv, basal threshold 10.45±0.53 sec
Procedure: Tail immersion test: Nociception tests were performed on male, awake C57BL/6N male mice (25-30 g weight; Janvier Labs, France). Animals were housed in groups of five per cage and kept under a 12 h/12 h light/dark cycle at 21±1° C. with ad libitum access to food and water. Experiments were performed during the light-on phase of the cycle. Mice were habituated to the testing room and equipment and handled for 1 week before starting behavioural experiments. The nociceptive thermal threshold of mice was determined using the tail immersion test. Mice were restrained in a grid pocket and their tail was immersed in a thermostated water bath. The latency (in sec) for tail withdrawal from hot water (47±0.5° C.) was taken as a measure of the nociceptive response.

[2] = Non-specific adsorption to Eppendorf protein LoBind tubes; conditions: 10 μM in HEPES/BSA buffer
Procedure: The propensity of spexin analogs to bind to Eppendorf protein LoBind tubes was evaluated.
A solution of 10 μM of spexin analogs in solution in HEPES/BSA buffer was added to Eppendorf protein LoBind tubes, stirred for 5 min and vortexed for 2 min. The supernatant was removed from the tube and acetonitrile was added to dissolve the compound adsorbed to the plastic. The amount of peptide recovered was then evaluated by HPLC-MS/MS following the same protocol than above described for plasma stability analysis. The non-specific adsorption of peptides (%) was calculated by comparing the peak area of each compound recovered to that obtained with the same compound in DMSO (prevent the adsorption of the compounds to plastic).

[3] = molecular target: T1, human GALR1 (Homo sapiens, UniProt P47211); test: Forskolin-induced cAMP accumulation, GloSensor cAMP assay in HEK293 cells; assay type: cell-based; conditions: up to 1 μM
T1 construct: expressed in transfected cells; transiently transfected with pGloSensor-22F
T1 sequence (P47211 1-349): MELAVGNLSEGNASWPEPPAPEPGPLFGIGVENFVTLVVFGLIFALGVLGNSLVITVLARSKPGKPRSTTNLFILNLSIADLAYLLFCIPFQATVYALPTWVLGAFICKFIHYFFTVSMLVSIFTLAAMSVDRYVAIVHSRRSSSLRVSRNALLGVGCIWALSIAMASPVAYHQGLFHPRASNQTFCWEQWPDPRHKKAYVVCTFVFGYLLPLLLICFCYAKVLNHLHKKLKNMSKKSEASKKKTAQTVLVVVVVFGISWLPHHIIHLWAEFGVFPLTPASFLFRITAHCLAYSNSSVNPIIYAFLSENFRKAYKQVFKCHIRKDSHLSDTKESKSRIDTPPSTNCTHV
Procedure: The effects were examined by using the GloSensor™ cAMP Assay according to manufacturer recommendations (Promega, Madison Wis., USA) with a few modifications. […] Following pre-equilibration for 2 h at 25° C., D-luciferin-loaded cells were distributed (100,000 cells per well) in a white 96-well plate and kinetic recordings of their luminescence level were acquired using a FlexStation II (Molecular Devices, Sunnyvale Calif., USA). Compounds to be tested were injected at various concentrations 10 min before forskolin addition (0.5 μM final concentration) and readings were pursued for 30 min. Experiments were conducted at 25° C. in the presence of 0.1 mM IBMX to prevent the degradation of cAMP by phospodiesterases.

[4] = molecular target: T2, GalR2 (Homo sapiens, UniProt O43603); test: Calcium mobilization in CHO cells expressing GalR2; assay type: cell-based; conditions: CHO cells expressing GalR2, Fluo-4 AM, 37° C.; read-out: EC50 Ca2+ production
T2 construct: expressed in transfected cells; host or cells: CHO cells
T2 sequence (O43603 1-387): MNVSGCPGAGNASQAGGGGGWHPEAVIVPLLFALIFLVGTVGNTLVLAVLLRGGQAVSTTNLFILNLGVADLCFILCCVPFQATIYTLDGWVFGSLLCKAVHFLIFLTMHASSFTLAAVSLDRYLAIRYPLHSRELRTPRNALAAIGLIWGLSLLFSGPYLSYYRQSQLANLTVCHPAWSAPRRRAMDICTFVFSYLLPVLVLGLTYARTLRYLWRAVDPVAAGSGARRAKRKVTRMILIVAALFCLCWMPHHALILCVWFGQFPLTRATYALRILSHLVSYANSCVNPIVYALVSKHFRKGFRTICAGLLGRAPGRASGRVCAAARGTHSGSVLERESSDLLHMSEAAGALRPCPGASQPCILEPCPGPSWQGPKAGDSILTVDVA

CSCC[C@H](NC(=O)[C@H](C)NC(=O)[C@H](CCC(N)=O)NC(=O)[C@@H]1CCCN1C(=O)[C@@H](NC(=O)[C@H](Cc1c[nH]c2ccccc12)NC(=O)[C@@H](N)CC(N)=O)[C@@H](C)O)C(=O)N[C@@H](CC(C)C)C(=O)N[C@@H](Cc1ccc(O)cc1)C(=O)N[C@@H](CC(C)C)C(=O)N[C@@H](CCCCN)C(=O)NCC(=O)N[C@@H](C)C(=O)N[C@@H](CCC(N)=O)C(N)=O [SPEXIN]
tail immersion withdrawal latency ([1]; 15 min after injection, p<0.01): 15.38 ± 0.57 s
tail immersion withdrawal latency ([1]; 30 min after injection, p<0.05): 13.06 ± 0.87 s
Non-specific adsorption of peptide [2]: 0%
agonist activity at GalR1 [3]: no agonist activity
EC50 [4]: 37 ± 18 nM
